From the supplement of paper PMC10849652
This is one part of the list.

The chains behind the UniProt entries cited, without tags or fusion partners. Where a name states a change or a piece, a line headed by the entry shows the natural chain unless it says otherwise.
UniProt Q9UKJ5: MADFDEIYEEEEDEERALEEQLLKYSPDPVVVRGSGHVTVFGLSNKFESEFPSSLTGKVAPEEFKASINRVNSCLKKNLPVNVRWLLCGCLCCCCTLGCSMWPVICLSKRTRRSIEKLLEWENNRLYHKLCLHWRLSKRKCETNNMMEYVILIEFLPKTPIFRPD
UniProt Q9UEE9, whole entry, looked up: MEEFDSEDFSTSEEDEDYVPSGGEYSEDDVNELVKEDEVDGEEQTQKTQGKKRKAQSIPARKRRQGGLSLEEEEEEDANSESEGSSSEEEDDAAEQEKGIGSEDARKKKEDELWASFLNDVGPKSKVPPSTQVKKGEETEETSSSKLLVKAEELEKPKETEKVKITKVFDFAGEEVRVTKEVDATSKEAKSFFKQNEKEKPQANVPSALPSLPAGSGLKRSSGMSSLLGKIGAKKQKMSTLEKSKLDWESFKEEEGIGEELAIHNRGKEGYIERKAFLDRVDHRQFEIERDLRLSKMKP
UniProt O43633: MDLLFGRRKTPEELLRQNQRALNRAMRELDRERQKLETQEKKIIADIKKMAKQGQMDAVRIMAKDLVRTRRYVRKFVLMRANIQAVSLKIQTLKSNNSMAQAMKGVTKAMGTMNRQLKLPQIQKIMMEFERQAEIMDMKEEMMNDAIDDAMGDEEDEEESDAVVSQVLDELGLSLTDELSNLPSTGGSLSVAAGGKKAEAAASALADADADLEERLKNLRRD
UniProt Q96JB5: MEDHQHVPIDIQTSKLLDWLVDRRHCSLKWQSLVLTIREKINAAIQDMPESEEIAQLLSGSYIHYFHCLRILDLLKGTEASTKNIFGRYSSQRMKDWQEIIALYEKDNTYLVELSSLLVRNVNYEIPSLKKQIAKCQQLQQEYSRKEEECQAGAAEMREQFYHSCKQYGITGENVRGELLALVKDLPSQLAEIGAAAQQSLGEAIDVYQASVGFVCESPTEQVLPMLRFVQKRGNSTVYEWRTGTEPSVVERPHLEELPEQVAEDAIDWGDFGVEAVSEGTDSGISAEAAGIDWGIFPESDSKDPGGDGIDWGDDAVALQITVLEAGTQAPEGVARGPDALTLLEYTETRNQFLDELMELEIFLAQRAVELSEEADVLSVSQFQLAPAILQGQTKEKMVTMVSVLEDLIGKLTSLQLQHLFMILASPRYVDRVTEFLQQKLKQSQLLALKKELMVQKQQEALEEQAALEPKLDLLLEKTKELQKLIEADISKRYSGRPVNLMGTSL
UniProt P35790, whole entry, looked up: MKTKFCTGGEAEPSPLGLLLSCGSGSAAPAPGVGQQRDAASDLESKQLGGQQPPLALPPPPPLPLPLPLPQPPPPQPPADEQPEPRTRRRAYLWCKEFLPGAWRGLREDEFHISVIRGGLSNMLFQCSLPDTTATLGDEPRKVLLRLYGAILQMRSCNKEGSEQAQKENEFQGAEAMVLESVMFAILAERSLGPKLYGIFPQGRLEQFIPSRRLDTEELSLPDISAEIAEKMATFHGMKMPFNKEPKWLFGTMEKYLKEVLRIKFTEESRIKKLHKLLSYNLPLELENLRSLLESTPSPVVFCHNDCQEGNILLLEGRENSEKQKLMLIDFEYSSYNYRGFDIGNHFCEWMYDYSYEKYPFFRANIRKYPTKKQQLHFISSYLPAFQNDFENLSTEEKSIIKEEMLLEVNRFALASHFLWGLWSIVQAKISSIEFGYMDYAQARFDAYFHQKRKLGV
UniProt Q5VV42: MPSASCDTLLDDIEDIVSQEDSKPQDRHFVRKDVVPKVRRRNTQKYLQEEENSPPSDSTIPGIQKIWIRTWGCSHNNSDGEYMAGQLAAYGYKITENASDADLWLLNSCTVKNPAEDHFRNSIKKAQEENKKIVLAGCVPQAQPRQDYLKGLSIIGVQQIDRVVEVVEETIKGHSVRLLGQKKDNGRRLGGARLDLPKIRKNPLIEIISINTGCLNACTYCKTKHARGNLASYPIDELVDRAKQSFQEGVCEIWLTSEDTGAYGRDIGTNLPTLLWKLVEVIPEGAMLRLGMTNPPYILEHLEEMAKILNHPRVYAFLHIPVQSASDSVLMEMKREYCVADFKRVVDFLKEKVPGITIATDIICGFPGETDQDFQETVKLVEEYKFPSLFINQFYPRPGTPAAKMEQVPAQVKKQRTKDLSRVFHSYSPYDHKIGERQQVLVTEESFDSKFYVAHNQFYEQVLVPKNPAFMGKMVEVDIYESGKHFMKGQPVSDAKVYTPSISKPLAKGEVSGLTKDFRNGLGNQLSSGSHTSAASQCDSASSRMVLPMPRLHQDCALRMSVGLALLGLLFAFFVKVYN
UniProt Q9Y6A4: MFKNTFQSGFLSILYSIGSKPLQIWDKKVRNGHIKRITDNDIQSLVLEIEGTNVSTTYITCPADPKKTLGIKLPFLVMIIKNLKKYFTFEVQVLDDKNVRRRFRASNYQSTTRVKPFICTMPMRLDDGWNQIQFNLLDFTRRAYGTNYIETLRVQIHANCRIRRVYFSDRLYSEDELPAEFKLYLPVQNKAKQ
UniProt Q9H444: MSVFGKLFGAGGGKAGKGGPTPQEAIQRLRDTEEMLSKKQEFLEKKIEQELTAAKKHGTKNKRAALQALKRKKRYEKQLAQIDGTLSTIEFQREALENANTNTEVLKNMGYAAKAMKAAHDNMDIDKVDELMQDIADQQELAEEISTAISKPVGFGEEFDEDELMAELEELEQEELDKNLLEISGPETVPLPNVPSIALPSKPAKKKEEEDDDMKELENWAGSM
UniProt Q9Y3E7, whole entry, looked up: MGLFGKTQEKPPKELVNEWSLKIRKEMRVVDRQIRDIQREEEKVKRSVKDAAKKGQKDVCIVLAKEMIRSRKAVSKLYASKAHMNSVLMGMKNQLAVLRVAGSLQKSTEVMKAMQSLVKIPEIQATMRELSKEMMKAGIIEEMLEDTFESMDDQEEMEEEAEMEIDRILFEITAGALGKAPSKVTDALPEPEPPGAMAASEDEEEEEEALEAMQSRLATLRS
UniProt P57076: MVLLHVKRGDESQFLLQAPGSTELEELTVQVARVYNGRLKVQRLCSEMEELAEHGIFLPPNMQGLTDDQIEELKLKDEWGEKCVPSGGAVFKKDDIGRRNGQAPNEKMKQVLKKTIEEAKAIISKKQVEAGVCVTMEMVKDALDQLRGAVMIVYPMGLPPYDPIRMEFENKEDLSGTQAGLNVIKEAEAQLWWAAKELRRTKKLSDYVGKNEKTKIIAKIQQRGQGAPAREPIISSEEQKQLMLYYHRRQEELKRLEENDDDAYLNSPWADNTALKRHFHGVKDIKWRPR
UniProt P41208: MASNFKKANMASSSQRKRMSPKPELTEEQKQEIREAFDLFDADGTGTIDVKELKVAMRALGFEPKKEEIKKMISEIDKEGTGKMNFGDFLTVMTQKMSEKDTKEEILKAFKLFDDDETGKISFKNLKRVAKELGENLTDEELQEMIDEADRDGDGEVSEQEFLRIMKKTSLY
UniProt Q8WUX2: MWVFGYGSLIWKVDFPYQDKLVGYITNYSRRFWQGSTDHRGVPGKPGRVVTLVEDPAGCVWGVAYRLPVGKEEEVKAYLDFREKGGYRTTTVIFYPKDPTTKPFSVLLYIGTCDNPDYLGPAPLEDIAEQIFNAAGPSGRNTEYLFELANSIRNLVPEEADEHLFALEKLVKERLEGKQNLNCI
UniProt O15182: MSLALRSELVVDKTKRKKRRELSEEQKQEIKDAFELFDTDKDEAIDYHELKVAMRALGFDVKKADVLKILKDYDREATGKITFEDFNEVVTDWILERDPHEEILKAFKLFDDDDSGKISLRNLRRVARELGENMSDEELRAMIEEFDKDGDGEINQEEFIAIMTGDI
UniProt Q9Y281, whole entry, looked up: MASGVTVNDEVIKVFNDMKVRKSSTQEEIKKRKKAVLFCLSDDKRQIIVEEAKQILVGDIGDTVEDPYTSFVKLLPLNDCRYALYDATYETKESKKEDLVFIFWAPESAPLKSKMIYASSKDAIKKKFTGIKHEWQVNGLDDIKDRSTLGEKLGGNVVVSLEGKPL
UniProt Q96JM3: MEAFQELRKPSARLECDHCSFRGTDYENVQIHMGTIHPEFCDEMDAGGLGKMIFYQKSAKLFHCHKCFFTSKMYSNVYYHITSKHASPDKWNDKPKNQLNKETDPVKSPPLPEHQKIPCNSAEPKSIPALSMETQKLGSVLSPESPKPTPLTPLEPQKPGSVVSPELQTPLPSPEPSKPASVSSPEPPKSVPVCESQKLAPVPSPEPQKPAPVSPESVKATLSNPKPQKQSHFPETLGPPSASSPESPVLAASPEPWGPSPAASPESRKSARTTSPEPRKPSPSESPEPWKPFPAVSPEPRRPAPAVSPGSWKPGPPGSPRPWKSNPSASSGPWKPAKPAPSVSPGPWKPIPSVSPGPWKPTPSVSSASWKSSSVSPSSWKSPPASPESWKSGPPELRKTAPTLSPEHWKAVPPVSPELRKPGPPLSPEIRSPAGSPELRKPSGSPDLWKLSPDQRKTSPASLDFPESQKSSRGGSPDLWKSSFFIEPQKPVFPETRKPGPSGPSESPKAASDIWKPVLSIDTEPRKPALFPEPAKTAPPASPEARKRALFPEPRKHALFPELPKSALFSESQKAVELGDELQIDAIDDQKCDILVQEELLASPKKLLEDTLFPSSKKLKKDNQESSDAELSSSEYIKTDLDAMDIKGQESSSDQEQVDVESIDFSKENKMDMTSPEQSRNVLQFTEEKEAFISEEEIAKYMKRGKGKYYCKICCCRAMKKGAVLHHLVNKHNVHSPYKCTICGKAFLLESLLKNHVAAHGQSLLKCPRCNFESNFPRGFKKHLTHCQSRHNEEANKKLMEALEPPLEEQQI
UniProt Q9UFW8: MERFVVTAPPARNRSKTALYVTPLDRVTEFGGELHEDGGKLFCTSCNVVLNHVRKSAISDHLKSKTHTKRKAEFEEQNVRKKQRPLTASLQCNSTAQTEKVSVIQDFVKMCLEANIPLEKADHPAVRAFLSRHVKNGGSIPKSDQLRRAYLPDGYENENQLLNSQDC
UniProt Q96SZ6: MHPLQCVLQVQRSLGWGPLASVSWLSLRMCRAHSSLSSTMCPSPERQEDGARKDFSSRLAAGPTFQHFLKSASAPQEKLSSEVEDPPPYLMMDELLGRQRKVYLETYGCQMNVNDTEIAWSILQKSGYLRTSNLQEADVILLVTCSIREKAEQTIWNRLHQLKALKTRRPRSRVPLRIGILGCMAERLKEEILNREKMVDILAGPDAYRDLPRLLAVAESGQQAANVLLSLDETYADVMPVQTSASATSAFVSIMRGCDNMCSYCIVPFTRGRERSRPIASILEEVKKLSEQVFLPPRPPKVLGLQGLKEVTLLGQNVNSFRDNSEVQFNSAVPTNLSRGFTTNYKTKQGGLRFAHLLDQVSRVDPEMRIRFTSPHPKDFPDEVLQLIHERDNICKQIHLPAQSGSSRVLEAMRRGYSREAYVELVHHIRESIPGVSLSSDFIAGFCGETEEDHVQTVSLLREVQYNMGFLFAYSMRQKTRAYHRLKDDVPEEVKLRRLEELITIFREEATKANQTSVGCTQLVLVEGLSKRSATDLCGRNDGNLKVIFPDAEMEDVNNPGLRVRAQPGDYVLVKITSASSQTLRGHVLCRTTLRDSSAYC
UniProt Q96G23: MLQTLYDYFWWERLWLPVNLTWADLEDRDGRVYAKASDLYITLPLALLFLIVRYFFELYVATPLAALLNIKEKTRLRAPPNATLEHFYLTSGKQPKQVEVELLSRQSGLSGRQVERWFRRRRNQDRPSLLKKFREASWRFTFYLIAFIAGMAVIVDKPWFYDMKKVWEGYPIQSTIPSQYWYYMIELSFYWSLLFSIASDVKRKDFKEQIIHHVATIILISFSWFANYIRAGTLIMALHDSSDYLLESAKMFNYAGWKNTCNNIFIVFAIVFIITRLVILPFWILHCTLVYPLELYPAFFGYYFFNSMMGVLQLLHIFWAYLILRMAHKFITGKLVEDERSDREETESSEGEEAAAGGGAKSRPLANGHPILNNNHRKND
UniProt O95319: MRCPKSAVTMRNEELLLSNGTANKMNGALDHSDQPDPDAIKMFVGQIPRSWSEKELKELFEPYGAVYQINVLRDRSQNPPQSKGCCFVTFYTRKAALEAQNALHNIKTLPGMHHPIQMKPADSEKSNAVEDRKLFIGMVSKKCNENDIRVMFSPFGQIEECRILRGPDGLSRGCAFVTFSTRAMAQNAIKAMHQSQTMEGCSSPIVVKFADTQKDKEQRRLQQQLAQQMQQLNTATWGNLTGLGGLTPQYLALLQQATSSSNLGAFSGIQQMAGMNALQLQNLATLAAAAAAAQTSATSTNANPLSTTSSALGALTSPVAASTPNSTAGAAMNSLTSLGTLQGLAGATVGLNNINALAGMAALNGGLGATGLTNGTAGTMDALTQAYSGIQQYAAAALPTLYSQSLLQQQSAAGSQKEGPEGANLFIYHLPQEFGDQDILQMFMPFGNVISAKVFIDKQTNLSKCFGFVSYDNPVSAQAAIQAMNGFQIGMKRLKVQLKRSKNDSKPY
UniProt Q99618: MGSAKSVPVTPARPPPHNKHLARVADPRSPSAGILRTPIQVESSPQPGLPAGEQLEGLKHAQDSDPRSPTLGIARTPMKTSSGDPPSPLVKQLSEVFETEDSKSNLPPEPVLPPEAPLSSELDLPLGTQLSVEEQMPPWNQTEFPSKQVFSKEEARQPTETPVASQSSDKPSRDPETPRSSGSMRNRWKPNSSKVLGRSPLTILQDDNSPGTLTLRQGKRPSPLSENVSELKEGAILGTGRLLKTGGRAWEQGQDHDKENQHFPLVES

Compound: Cc1nc(Nc2n[nH]c3c2CN(C(=O)N[C@H](CN(C)C)c2ccccc2)C3(C)C)c2sccc2n1
Assay: log2 fold change, soluble protein after heating vs DMSO (PISA); higher = thermal stabilisation; K562 cells, 10 uM, 30 min; active = over 0.2 and 3.5 SD of the protein, either way, in both replicates (recomputed)
Summary of the method: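 K562 cells at 2×10^6 cells/mL were exposed to 10 μM compound for 30 min, then aliquots were heated for 3 min across 48°C-58°C, pooled, and extracted in PBS containing 0.5% NP-40 at 4°C. The supernatant after 21,000xg for 90 min was taken as soluble protein and measured by TMTpro 16plex LC-MS/MS with channel sums equalised. Thermal stability is reported relative to control samples, with values from duplicates. Fold changes are given on a log2 scale.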

log2 fold change, inactive:
CHIC2 (UniProt Q9UKJ5) -0.089, CFDP1 (UniProt Q9UEE9) 0.009, CHMP2A (UniProt O43633) -0.004, CHD4 isoform 2 (UniProt Q14839) -0.267, CEP76 (UniProt Q8TAP6) -0.009, CDK5RAP3 isoform 4 (UniProt Q96JB5) 0.012, CHKA (UniProt P35790) 0.149, CDC73 (UniProt Q6P1J9) -0.106, CHCHD3 (UniProt Q9NX63) 0.022, CDKAL1 (UniProt Q5VV42) -0.004, CDK13 (UniProt Q14004) -0.149, CFAP20 (UniProt Q9Y6A4) -0.102, CHD6 (UniProt Q8TD26) 0.053, CHMP4A isoform 2 (UniProt Q9BY43) 0.021, CHMP4B (UniProt Q9H444) 0.007, CDK11B (UniProt P21127) -0.038, CHMP3 (UniProt Q9Y3E7) -0.025, CFAP298 (UniProt P57076) -0.013, CETN2 (UniProt P41208) -0.055, CHAC2 (UniProt Q8WUX2) -0.153, CETN3 (UniProt O15182) 0.04, CHD3 isoform 3 (UniProt Q12873) -0.274, CFL2 (UniProt Q9Y281) 0.041, CHEK2 isoform 9 (UniProt O96017) -0.175, CFL1 (UniProt P23528) -0.006, CDCP1 (UniProt Q9H5V8) -0.014, CDS2 (UniProt O95674) -0.049, CEPT1 (UniProt Q9Y6K0) 0.156, CHAMP1 (UniProt Q96JM3) -0.132, CGGBP1 (UniProt Q9UFW8) 0.004, CDK5RAP1 (UniProt Q96SZ6) -0.008, CERS2 (UniProt Q96G23) -0.015, CDCA5 (UniProt Q96FF9) -0.176, CHMP4C (UniProt Q96CF2) -0.021, CELF2 isoform 3 (UniProt O95319) 0.013, CERS5 (UniProt Q8N5B7) 0.026, CDCA3 (UniProt Q99618) 0.001

log2 fold change, active:
CDC42BPA isoform 6 (UniProt Q5VT25) -0.682, CDK16 isoform 2 (UniProt Q00536) 0.619
